No constants are given. Whether binding was seen depends on the method and setting. In cells and extracts the contact can be indirect. Some binding calls cover weakened binding; strength is not graded here.
Molecular target: Prohibitin 2 (rat (endogenous in A7r5)) (UniProt Q5XIH7)
Assay: co-IP; 500 ug cell lysate with anti-PHB2 antibody at 4°C for 2 h, then protein G Plus-Agarose at 4°C overnight; western blot for PHB1; control without the anti-PHB2 antibody; A7r5 cells, also treated with siPHB2

Amino acid sequences for entries named in this document (tags omitted).
UniProt Q5XIH7: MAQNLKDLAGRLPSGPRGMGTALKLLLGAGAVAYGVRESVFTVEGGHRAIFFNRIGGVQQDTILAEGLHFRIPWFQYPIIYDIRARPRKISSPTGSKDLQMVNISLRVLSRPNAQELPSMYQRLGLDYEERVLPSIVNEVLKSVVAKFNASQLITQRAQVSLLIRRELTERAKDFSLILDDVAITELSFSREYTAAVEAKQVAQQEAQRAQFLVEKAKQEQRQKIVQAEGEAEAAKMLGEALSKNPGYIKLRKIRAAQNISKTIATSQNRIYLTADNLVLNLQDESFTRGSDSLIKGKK

binding: binds
B1: Prohibitin 1 (protein, UniProt P67779 1-272)
chain: MAAKVFESIGKFGLALAVAGGVVNSALYNVDAGHRAVIFDRFRGVQDIVVGEGTHFLIPWVQKPIIFDCRSRPRNVPVITGSKDLQNVNITLRILFRPVASQLPRIYTSIGEDYDERVLPSITTEILKSVVARFDAGELITQRELVSRQVSDDLTERAATFGLILDDVSLTHLTFGKEFTEAVEAKQVAQQEAERARFVVEKAEQQKKAAIISAEGDSKAAELIANSLATAGDGLIELRKLEAAEDIAYQLSRSRNITYLPAGQSVLLQLPQ

— paper PMC11960914
